Earlier results on 2 compounds are cited in patent US9561225B2, “Pharmaceutical formulation containing opioid agonist, opioid antagonist and gelling agent” (Purdue Pharma L.P., priority 2001, dated 2017).

Counter-ions that a name gives are not always drawn.

The conditions of data set [1]: oral administration.
For data set [2] the following is noted: hydrochloride salt.

In the case of `O=C1CC[C@@]2(O)[C@H]3Cc4ccc(O)c5c4[C@@]2(CCN3CC2CC2)[C@H]1O5` [naltrexone], the oral bioavailability in data set [1] is recorded as 5-40%. `O=C1CC[C@@]2(O)[C@H]3Cc4ccc(O)c5c4[C@@]2(CCN3CC2CC2)[C@H]1O5` [hydrochloride salt of naltrexone, naltrexone hydrochloride]: in data set [2], the solubility in water result is reported as “about 100 mg/cc”.
